Series [1] can be described thus: Low frequency modulation sensing in 0.5% intralipid with Ru complex PVA film as long lifetime reference. It counts as physicochemical.
A short description of series [2]: Detection of fluorophore emission through chicken skin over intralipid or chicken muscle. Particulars: chicken skin over intralipid; also over chicken muscle.

In series [1] (0.5% intralipid with Ru complex reference), `CC1(C)C(/C=C/C=C/C=C/C=C2\N(CCCCS(=O)(=O)O)c3ccc4ccccc4c3C2(C)C)=[N+](CCCCS(=O)(=O)[O-])c2ccc3ccccc3c21` [IcG, indocyanine green] registered a lowest concentration detected of 250 nm. Moreover, the “emission peak detected through chicken skin” value in series [2] is 820 nm.

Turning to Rhodamine 800 [Rh800], the “calculated fs (fractional intensity of short component)” value was 0.184 in series [1] (0.05 μM Rh800, global analysis); 0.534 in series [1] (0.25 μM Rh800, global analysis); 0.803 in series [1] (1.00 μM Rh800, global analysis). In addition, the observed modulation in series [1] (0.05 μM Rh800, near 5 MHz) amounted to 0.185; in series [1] (0.25 μM Rh800, near 5 MHz), 0.525; in series [1] (1.00 μM Rh800, near 5 MHz) it was 0.812. The molecule also returned a lowest concentration detected in series [1] (0.5% intralipid) of 50 nM. Also, the “emission peak detected through chicken skin” value in series [2] is reported as 710 nm.
